Experimental data: PubChem BioAssay AID1259308 (NCATS, 2017)
Screen: 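Knock-downs that increase output of a recombinant reporter protein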 (primary screen). Cells: human HEK293 embryonic kidney cells stably expressing firefly luciferase (HEK-CMV-Luc2-Hygro). Reagents: single siRNA against human genes, 0.8 pmol siRNA per well. Duration: 72 h. Measurement: 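Reporter luminescence and viable-cell signal on separate replicate plates, given as percent of non-targeting control and median/MAD z-scores, plus per-cell luciferase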. Reading the numbers: total luciferase, z-score and total luciferase, % of control: higher = more reporter protein produced; luciferase per cell, z-score: higher = more reporter output per viable cell; viable cells, % of control: higher = more viable cells. Hit rule: 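Active when the median/MAD z-score for overall luciferase is greater than 3; a gene was taken forward for validation with new siRNAs if at least two of its three siRNAs passed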. Meaning of the calls: active = raised luciferase; inactive = no rise.
This is an unselected part of about 59,000 reagents tested. Over the whole deposit, about 1,510 (2.6%) got an active call. 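Calls use total luciferase alone and ignore viability, so some active siRNAs may act by altering cell number.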 Unmarked entries are inactive. Reagents against one gene are numbered here.

no.	gene symbol	siRNA no.	total luciferase, z-score	total luciferase, % of control	luciferase per cell, z-score	viable cells, % of control
1	ITGB7 (integrin subunit beta 7)	1	1.8	118	1.19	96.2
2	ITGB7 (integrin subunit beta 7)	2	0.17	85.3	-0.356	105
3	ITGB7 (integrin subunit beta 7)	3	0.54	92.6	0.374	93.8
4	COA7 (cytochrome c oxidase assembly factor 7)	1	-0.225	77.4	-0.743	105
5	COA7 (cytochrome c oxidase assembly factor 7)	2	-0.0566	80.8	-0.512	103
6	COA7 (cytochrome c oxidase assembly factor 7)	3	0.241	86.7	0.386	87.5
7	DHRS13 (dehydrogenase/reductase 13)	1	-0.0163	81.6	-0.0945	93.4
8	DHRS13 (dehydrogenase/reductase 13)	2	1.02	102	0.416	102
9	DHRS13 (dehydrogenase/reductase 13)	3	0.641	94.6	0.589	90.6
10	SMAP1 (small ArfGAP 1)	1	-0.485	72.2	-0.4	89.7
11	SMAP1 (small ArfGAP 1)	2	-0.458	72.8	0.0581	80.1
12	SMAP1 (small ArfGAP 1)	3	-1.28	56.3	-1.86	103
13	OR52N2 (olfactory receptor family 52 subfamily N member 2)	1	-1.03	61.5	-0.32	74.7
14	OR52N2 (olfactory receptor family 52 subfamily N member 2)	2	-0.941	63.2	-0.0229	71
15	OR52N2 (olfactory receptor family 52 subfamily N member 2)	3	-0.151	78.9	-0.642	104
16	DFFA (DNA fragmentation factor subunit alpha)	1	-0.452	72.9	-0.818	101
17	DFFA (DNA fragmentation factor subunit alpha)	2	2.93	140	2.27	86.2
18	DFFA (DNA fragmentation factor subunit alpha)	3	-1.4	54.1	-1.7	94.5
19	WWP2 (WW domain containing E3 ubiquitin protein ligase 2)	1	0.222	86.3	-0.424	108
20	WWP2 (WW domain containing E3 ubiquitin protein ligase 2)	2	-0.76	66.8	-0.761	91.2
21	WWP2 (WW domain containing E3 ubiquitin protein ligase 2)	3	2.52	132	1.78	92.3
22	MRPL36 (mitochondrial ribosomal protein L36)	1	2.03	122	2.29	74.7
23	MRPL36 (mitochondrial ribosomal protein L36)	2	-0.138	79.1	-0.382	97.8
24	MRPL36 (mitochondrial ribosomal protein L36)	3	0.738	96.6	1.12	80.3
25	RGS12 (regulator of G protein signaling 12)	1	0.553	92.9	-0.0368	105
26	RGS12 (regulator of G protein signaling 12)	2	0.381	89.5	-0.335	109
27	RGS12 (regulator of G protein signaling 12)	3	0.0793	83.5	-0.357	102
28	KMT5C (lysine methyltransferase 5C)	1	-0.193	78	-0.148	90.7
29	KMT5C (lysine methyltransferase 5C)	2	0.21	86.1	-0.21	102
30	KMT5C (lysine methyltransferase 5C)	3	-0.868	64.6	-0.703	86.9
31	ADARB2-AS1 (ADARB2 antisense RNA 1)	1	-0.595	70	-0.685	93.7
32	ADARB2-AS1 (ADARB2 antisense RNA 1)	2	1.21	106	1.21	86.1
33	ADARB2-AS1 (ADARB2 antisense RNA 1)	3	0.649	94.8	0.969	82.1
34	TIMM50 (translocase of inner mitochondrial membrane 50)	1	-0.711	67.7	-0.764	92.6
35	TIMM50 (translocase of inner mitochondrial membrane 50)	2	0.028	82.4	0.916	72.4
36	TIMM50 (translocase of inner mitochondrial membrane 50)	3	0.387	89.6	3.06	44.7

4 entries from above, reformatted.
{"gene symbol":"DHRS13 (dehydrogenase/reductase 13)","siRNA no.":3,"total luciferase, z-score":0.641,"total luciferase, % of control":94.6,"luciferase per cell, z-score":0.589,"viable cells, % of control":90.6}
{"gene symbol":"SMAP1 (small ArfGAP 1)","siRNA no.":1,"total luciferase, z-score":-0.485,"total luciferase, % of control":72.2,"luciferase per cell, z-score":-0.4,"viable cells, % of control":89.7}
{"gene symbol":"SMAP1 (small ArfGAP 1)","siRNA no.":2,"total luciferase, z-score":-0.458,"total luciferase, % of control":72.8,"luciferase per cell, z-score":0.0581,"viable cells, % of control":80.1}
{"gene symbol":"SMAP1 (small ArfGAP 1)","siRNA no.":3,"total luciferase, z-score":-1.28,"total luciferase, % of control":56.3,"luciferase per cell, z-score":-1.86,"viable cells, % of control":103}

Additional entries follow:
no.	gene symbol	siRNA no.	total luciferase, z-score	total luciferase, % of control	luciferase per cell, z-score	viable cells, % of control
37	FBXL20 (F-box and leucine rich repeat protein 20)	1	1.21	106	0.435	106
38	FBXL20 (F-box and leucine rich repeat protein 20)	2	2.02	122	1.4	94.5
39	FBXL20 (F-box and leucine rich repeat protein 20)	3	-0.134	79.2	-0.941	113
40	NFS1 (NFS1 cysteine desulfurase)	1	-0.753	66.9	-0.537	86.1
41	NFS1 (NFS1 cysteine desulfurase)	2	0.28	87.5	-0.359	107
42	NFS1 (NFS1 cysteine desulfurase)	3	0.947	101	1.76	70.8
43	LRRC78P (leucine rich repeat containing 78, pseudogene)	1	2.37	129	2.87	67.7
44	LRRC78P (leucine rich repeat containing 78, pseudogene)	2	0.762	97	0.599	92.6
45	LRRC78P (leucine rich repeat containing 78, pseudogene)	3	0.868	99.2	0.568	95.4
46	MRPL11 (mitochondrial ribosomal protein L11)	1	1.17	105	1.34	82.6
47	MRPL11 (mitochondrial ribosomal protein L11)	2	-0.62	69.6	-1.15	105
48	MRPL11 (mitochondrial ribosomal protein L11)	3	0.617	94.2	0.994	81
49	PMEPA1 (prostate transmembrane protein, androgen induced 1)	1	3.89 (active)	159	2.4	94.7
50	PMEPA1 (prostate transmembrane protein, androgen induced 1)	2	-0.479	72.4	-0.986	105
51	PMEPA1 (prostate transmembrane protein, androgen induced 1)	3	1.01	102	1.59	74.9
52	HSF4 (heat shock transcription factor 4)	1	0.59	93.6	0.226	98.6
53	HSF4 (heat shock transcription factor 4)	2	1.41	110	0.99	94.6
54	HSF4 (heat shock transcription factor 4)	3	-0.903	63.9	-0.47	80.8
55	FRAS1 (Fraser extracellular matrix complex subunit 1)	1	-0.178	78.3	0.0487	86.4
56	FRAS1 (Fraser extracellular matrix complex subunit 1)	2	-1.63	49.5	-2.05	94.9
57	FRAS1 (Fraser extracellular matrix complex subunit 1)	3	0.257	87	-0.0295	98
